Results are given in words; binding and its absence hold for the method and conditions named.

Test [1] deals with T1, FabF (E. coli ketoacyl synthase) (E. coli), P0AAI5.
T1 chain: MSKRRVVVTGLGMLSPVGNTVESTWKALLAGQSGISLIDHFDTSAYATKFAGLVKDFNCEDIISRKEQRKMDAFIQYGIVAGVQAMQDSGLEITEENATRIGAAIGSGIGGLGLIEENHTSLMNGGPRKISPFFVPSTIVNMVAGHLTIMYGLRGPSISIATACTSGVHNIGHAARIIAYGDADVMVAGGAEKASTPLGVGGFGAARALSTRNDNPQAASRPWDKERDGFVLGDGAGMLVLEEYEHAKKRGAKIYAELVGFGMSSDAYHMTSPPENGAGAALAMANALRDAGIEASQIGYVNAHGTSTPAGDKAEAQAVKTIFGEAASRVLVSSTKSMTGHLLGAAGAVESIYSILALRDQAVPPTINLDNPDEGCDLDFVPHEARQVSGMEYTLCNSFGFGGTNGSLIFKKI
Put plainly: AUC; sedimentation velocity titration; FabF constant at 16 uM, AcpP 0-230 uM or ACT ACP 0-250 uM; 20 mM Tris-HCl pH 8.0, 150 mM NaCl, 1 mM DTT, 20 C; s(w) and EPT s(w) fast isotherms fitted globally to A + B <-> AB; both purified. Conditions: remark: other sources report otherwise.

The target in test [2] is holo-ACT ACP (wild type; ACP of the actinorhodin type II PKS) (UniProt Q02054). Put plainly: AUC; sedimentation velocity of each protein alone; FabF 10-36 uM, holo-AcpP 345-488 uM, holo-ACT ACP (wild type) 98-196 uM; 20 mM Tris-HCl pH 8.0, 150 mM NaCl, 1 mM DTT, 20 C; both purified.

B1: holo-ACT ACP (wild type; ACP of the actinorhodin type II PKS), Q02054 1-86 (protein)
chain: MATLLTTDDLRRALVECAGETDGTDLSGDFLDLRFEDIGYDSLALMETAARLESRYGVSIPDDVAGRVDTPRELLDLINGALAEAA
modifications: here or on the partner: 4'-phosphopantetheine (Ppant) arm on the conserved serine (holo form)
On to B1, for which the binding entry in test [1] is “no binding (tested: ACT ACP at 0-250 uM with 16 uM FabF)”.

B2: holo-ACT ACP (wild type; ACP of the actinorhodin type II PKS) (protein, UniProt Q02054 1-86)
chain: MATLLTTDDLRRALVECAGETDGTDLSGDFLDLRFEDIGYDSLALMETAARLESRYGVSIPDDVAGRVDTPRELLDLINGALAEAA
modifications: 4'-phosphopantetheine (Ppant) arm on the conserved serine (holo form)
In the case of B2, the binding result in test [2] is reported as “no binding (tested: 98-196 uM)”.

These data come from publication PMC6821831, “Colorimetric Assay Reports on Acyl Carrier Protein Interactions” (Scientific Reports, 2019).
